Earlier results as cited in patent publication US7294643B2, “UK-1 analogues: methods of preparation and use” (Board of Regents, The University of Texas System, priority 2002, dated 2007).
Some of these results come from one statement about several compounds together.

System: murine cancer cell line P388
Conditions: P388, reported values; read-out: IC50, growth inhibition; cited from earlier work

Structure (SMILES) | IC50 [nM]
Cc1cccc(O)c1-c1nc2c(-c3nc4c(C(=O)O)cccc4o3)cccc2o1 [AJI9561] | 300 to 1600
COC(=O)c1cccc2oc(-c3cccc4oc(-c5ccccc5O)nc34)nc12 [UK-1] | 300 to 1600
